Publication PMC2596967
These are yes or no findings as the source states them, for the method shown. Binding seen in cells or lysates may run through a third protein. Some entries that bind do so weakly or less than the wild type.

The chains behind the UniProt entries cited, without tags or fusion partners.
UniProt P29351: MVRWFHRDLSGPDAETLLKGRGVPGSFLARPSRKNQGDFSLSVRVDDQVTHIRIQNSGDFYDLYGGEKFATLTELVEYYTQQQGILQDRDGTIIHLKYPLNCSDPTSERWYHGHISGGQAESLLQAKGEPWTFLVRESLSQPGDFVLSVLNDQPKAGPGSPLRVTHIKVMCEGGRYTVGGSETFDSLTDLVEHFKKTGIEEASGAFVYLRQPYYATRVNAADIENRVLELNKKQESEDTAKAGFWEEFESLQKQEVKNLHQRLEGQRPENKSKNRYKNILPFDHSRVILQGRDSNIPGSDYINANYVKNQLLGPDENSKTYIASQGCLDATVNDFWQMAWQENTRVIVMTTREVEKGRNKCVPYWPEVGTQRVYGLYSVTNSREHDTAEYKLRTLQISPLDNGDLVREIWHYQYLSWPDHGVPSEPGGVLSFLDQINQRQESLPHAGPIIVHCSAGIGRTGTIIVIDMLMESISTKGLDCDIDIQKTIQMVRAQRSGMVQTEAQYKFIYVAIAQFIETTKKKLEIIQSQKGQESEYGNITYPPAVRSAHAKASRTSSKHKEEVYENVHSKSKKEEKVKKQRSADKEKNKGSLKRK
UniProt Q62406: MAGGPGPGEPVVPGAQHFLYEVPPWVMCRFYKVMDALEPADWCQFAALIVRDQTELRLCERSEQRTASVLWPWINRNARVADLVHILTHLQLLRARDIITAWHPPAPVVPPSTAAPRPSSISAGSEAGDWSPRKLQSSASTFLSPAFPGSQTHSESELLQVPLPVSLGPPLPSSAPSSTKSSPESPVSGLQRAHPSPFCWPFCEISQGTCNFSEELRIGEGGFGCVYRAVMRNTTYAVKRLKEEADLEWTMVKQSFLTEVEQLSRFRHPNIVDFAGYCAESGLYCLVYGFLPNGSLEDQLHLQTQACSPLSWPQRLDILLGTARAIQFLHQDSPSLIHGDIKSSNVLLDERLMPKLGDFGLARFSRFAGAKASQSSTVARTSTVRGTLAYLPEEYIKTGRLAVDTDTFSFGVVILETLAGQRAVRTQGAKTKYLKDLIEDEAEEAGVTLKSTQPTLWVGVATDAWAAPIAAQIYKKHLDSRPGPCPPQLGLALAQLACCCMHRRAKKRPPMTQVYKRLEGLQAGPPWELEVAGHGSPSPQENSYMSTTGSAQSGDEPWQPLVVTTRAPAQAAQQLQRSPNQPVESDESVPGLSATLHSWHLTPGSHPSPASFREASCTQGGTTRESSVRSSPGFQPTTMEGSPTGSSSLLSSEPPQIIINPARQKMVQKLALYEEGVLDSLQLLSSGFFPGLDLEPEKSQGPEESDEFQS
UniProt P47811: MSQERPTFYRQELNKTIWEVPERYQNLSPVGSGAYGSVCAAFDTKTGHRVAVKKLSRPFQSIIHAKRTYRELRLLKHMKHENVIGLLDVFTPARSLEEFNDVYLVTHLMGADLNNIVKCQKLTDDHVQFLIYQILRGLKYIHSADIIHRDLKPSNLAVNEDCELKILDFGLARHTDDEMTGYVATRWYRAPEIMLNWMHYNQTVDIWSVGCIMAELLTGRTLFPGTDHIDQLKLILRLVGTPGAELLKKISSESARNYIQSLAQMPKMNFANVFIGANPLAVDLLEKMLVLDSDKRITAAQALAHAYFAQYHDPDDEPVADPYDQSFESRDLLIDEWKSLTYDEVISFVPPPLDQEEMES

Columns and labels:
[1] = molecular target: Src homology 2 domain-containing protein tyrosine phosphatase (SHP-1), endogenous in mouse macrophages (mouse (endogenous in bone marrow-derived MØ lines)) (UniProt P29351); experiment: co-IP; endogenous proteins of mouse MØ lysates; SHP-1 IP subjected to the IRAK-1 kinase assay (reciprocal IP)
[2] = molecular target: IL-1 receptor-associated kinase 1 (IRAK-1), endogenous in mouse macrophages (mouse (endogenous in bone marrow-derived MØ lines)) (UniProt Q62406); experiment: co-IP; endogenous proteins of mouse MØ lysates (no orthovanadate); IPs of IRAK-1 or other kinases loaded on a gel with 32P-labelled poly(Glu4Tyr), SHP-1 band seen by in gel PTP assay; cells at resting state or L. donovani-infected
[3] = molecular target: T1, IKK-β, endogenous in mouse macrophages (mouse (endogenous in bone marrow-derived MØ lines)) (UniProt O88351); experiment: as above
T1 sequence: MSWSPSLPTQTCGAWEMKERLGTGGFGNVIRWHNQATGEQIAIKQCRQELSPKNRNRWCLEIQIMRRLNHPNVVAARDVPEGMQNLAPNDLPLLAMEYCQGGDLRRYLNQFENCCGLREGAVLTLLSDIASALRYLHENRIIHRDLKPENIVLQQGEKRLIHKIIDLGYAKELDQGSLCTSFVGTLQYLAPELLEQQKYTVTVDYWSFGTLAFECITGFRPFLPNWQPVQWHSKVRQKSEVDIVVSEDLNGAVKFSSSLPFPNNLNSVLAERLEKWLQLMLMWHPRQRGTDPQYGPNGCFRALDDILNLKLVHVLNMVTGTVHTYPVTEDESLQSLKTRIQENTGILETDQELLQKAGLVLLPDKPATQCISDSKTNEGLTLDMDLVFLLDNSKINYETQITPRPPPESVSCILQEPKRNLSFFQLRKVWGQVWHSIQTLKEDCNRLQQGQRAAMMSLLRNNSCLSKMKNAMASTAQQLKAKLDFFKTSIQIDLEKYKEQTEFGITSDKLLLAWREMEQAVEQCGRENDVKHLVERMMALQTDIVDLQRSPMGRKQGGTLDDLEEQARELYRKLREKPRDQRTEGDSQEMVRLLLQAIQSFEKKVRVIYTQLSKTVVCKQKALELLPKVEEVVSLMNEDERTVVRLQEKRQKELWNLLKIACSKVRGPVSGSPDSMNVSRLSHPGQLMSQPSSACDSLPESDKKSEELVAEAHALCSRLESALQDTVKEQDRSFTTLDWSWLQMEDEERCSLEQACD

[4] = molecular target: p38, endogenous in mouse macrophages (mouse (endogenous in bone marrow-derived MØ lines)) (UniProt P47811); experiment: as above
[5] = molecular target: IL-1 receptor-associated kinase 1 (IRAK-1), endogenous in mouse macrophages (mouse (endogenous in bone marrow-derived MØ lines)) (UniProt Q62406); experiment: co-IP; endogenous proteins of mouse MØ lysates; IP with 4 µg IRAK-1 or SHP-1 antibody on protein A/G agarose beads, three washes with lysis buffer, western blot; cells naive, L. donovani-infected and/or stimulated with LPS (100 ng/ml)

How did the binding [1] turn out when “IL-1 receptor-associated kinase 1 (IRAK-1), endogenous in mouse macrophages (from UniProt Q62406 1-710)” was run?
The binding was “binds”.

Which results are given for “Src homology 2 domain-containing protein tyrosine phosphatase (SHP-1), endogenous in mouse macrophages (from UniProt P29351 1-595)”?
binding [2]: binds; binding [3]: binds; binding [4]: binds; binding [5]: binds
